Results deposited as PubChem BioAssay AID743454 (Peter MacCallum Cancer Centre, 2014).
Shown is an unselected part of about 18,000 reagents. 450 of them (2.5%) count as active. 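Single biological run; no consistent viability z cut-off exists, so the class columns, not z-scores, define the calls.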

Test: 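Knock-downs lowering viability or raising caspase 3/7 activity in vorinostat-treated resistant cells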 (primary screen)
System: human HCT116-VR colon cancer cells, selected for vorinostat resistance
Reagents: siRNA pool against human genes, 40 nM siRNA pool
Timing: vorinostat for 24 h, read-out about 72 h after transfection
Challenge: vorinostat at 2.5 µM final
Detection: 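Cell viability by CellTiter-Fluor and caspase 3/7 activity by luminescence, each scaled to mock wells per plate, duplicates averaged, then robust z-scored over all plates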
Reading the numbers: viability robust z-score: higher = more viable cells than screen typical; caspase robust z-score: higher = more caspase 3/7 activity than screen typical
Call rule: 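a knock-down is a hit when classed RV1 or RV2 for lowered viability, or CA1 or CA2 for caspase activation; those lethal without drug were dropped; hits were retested singly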

| target | viability hit class | caspase hit class | viability robust z-score | caspase robust z-score | outcome |
| --- | --- | --- | --- | --- | --- |
| FABP6 | RV2 (reduced viability) | no change | -3.52 | 2.92 | active |
| MAGEE1 | no change | no change | 0.65 | -0.42 | inactive |
| PDGFRL | no change | no change | 0.23 | 0.46 | inactive |
| FBXL20 | no change | no change | -0.18 | 0.38 | inactive |
| GALNT9 | no change | no change | -0.27 | -0.52 | inactive |
| NELFA | no change | no change | -0.8 | 0.38 | inactive |
| SYT1 | no change | no change | -0.92 | 0.52 | inactive |
| KPNA3 | no change | no change | -0.44 | 0.42 | inactive |
| CDKN2B | no change | no change | 0.56 | 0.19 | inactive |
| FAM110B | no change | no change | -1.85 | -0.15 | inactive |
| UBAP1 | no change | no change | 1.47 | 0.26 | inactive |
| LEKR1 | no change | no change | -1.4 | -0.6 | inactive |
| MTCL2 | no change | no change | -0.34 | 4.52 | inactive |
| ZRSR2 | no change | no change | 0.36 | -0.6 | inactive |
| ATP6AP2 | no change | no change | -0.42 | -1.44 | inactive |
| NGFR | no change | no change | 1.58 | 0.59 | inactive |
| KRTAP21-1 | no change | no change | -0.58 | 0.36 | inactive |
| ZNF224 | no change | no change | 0.94 | -0.82 | inactive |
| IFNAR2 | no change | no change | 0.74 | -0.88 | inactive |
| OR4D6 | no change | no change | -0.62 | 5.09 | inactive |
| ZNF385D | no change | no change | 0.1 | -1.12 | inactive |
| PPM1E | no change | no change | -2.04 | 0.84 | inactive |
| CCDC28A | no change | no change | 0.08 | 1.25 | inactive |
| KRTAP19-5 | no change | no change | 0.7 | 2.01 | inactive |
| AIMP2 | no change | no change | -0.2 | 1.04 | inactive |
| ASIC4 | no change | no change | -0.33 | -0.93 | inactive |
| HOXD3 | no change | no change | 0.96 | -0.14 | inactive |
| PGLYRP1 | no change | no change | 0.63 | -0.59 | inactive |
| UBL5 | no change | no change | -2.9 | 0.1 | inactive |
| ITSN2 | no change | no change | -2.06 | 0.5 | inactive |
| RPP38 | no change | no change | 0.09 | 0.5 | inactive |
| ANO3 | no change | no change | -1 | -1.34 | inactive |
| DUT | no change | no change | 1.1 | 0.94 | inactive |
| MTFP1 | no change | no change | 0.8 | -0.64 | inactive |
| COL4A6 | no change | no change | 1.22 | -0.26 | inactive |
| IMP3 | no change | no change | -1.22 | 0.26 | inactive |
| TAOK1 | no change | no change | -1.63 | -0.28 | inactive |
| CLC | no change | no change | 0.01 | -0.96 | inactive |
| FLAD1 | no change | no change | 0.78 | 3.97 | inactive |
| AFAP1L2 | no change | no change | 0.46 | -0.48 | inactive |
| ZNF496 | no change | no change | -0.54 | -0.39 | inactive |
| EPHB6 | no change | no change | -1.27 | 3.12 | inactive |
| HMGA1 | no change | no change | 0.3 | 2.82 | inactive |
| EVX1 | no change | no change | 0.24 | 0.9 | inactive |
| APOBEC3A | no change | no change | -1.5 | -1 | inactive |
| PGPEP1 | no change | no change | -0.96 | 0.44 | inactive |
| OR1L1 | no change | no change | -0.22 | -0.64 | inactive |
| UPP2 | no change | no change | 1.34 | 0.34 | inactive |
| ANO4 | no change | no change | 0.18 | -0.34 | inactive |
| ZMAT1 | no change | no change | 1.19 | -0.24 | inactive |
| H1-2 | no change | no change | 0.84 | -0.33 | inactive |
| MTUS1 | no change | no change | 0.4 | -0.19 | inactive |
| CCDC148 | no change | no change | 2.02 | -0.5 | inactive |
| SNRPG | no change | no change | -3.72 | -1.42 | inactive |
| CTNNAL1 | no change | no change | 0.56 | -0.69 | inactive |
| CDSN | no change | no change | -0.66 | 0.96 | inactive |
| ASTN1 | no change | no change | -0.88 | -0.28 | inactive |
| NOX1 | no change | no change | -0.3 | -0.6 | inactive |
| ABHD1 | no change | no change | 0.76 | -0.02 | inactive |
| OR1L3 | no change | no change | 0.24 | -0.72 | inactive |
| TNN | no change | no change | -0.46 | 2.59 | inactive |
| SECISBP2 | no change | no change | 0.31 | 0.18 | inactive |
| MFN1 | no change | no change | -1.09 | 0.48 | inactive |
| LMO3 | no change | no change | 1.6 | -0.7 | inactive |
| MVP | no change | no change | -0.28 | 1.21 | inactive |
| APMAP | no change | no change | -1.18 | -0.42 | inactive |
| UFD1 | no change | no change | -1.16 | 0.68 | inactive |
| BTG3 | no change | no change | 0.28 | 1.36 | inactive |
| FOXD4 | no change | no change | 0.52 | 0.32 | inactive |
| ZEB1 | no change | no change | 0.7 | 0.05 | inactive |
| UGT2B17 | no change | no change | 0.02 | -0.9 | inactive |
| SHROOM1 | no change | no change | -0.12 | -0.06 | inactive |
| VPS25 | no change | no change | 1.44 | -0.28 | inactive |

Targets above whose target name begins with H or h:
| target | viability hit class | caspase hit class | viability robust z-score | caspase robust z-score | outcome |
| --- | --- | --- | --- | --- | --- |
| HOXD3 | no change | no change | 0.96 | -0.14 | inactive |
| HMGA1 | no change | no change | 0.3 | 2.82 | inactive |
| H1-2 | no change | no change | 0.84 | -0.33 | inactive |
